Measurements reported in patent US20150352127A1, “INHALATION PARTICLES COMPRISING A COMBINATION OF AN ANTICHOLINERGIC, A CORTICOSTEROID AND A BETA-ADRENERGIC” (CHIESI FARMACEUTICI S.P.A., priority 2014, published 2015).
Where a name gives a salt, the structure may show the parent alone.

Tests used:
Type in all cases: physicochemical
[1] = Drug content of the microparticles by UPLC assay; conditions: in spray dried microparticles of Example 1; mean±SD, n=5
[2] = Aerosol performances by Next Generation Impactor (NGI) from NEXThaler; conditions: formulation of Example 3, NEXThaler, 60 L/min; mean±S.D., n=6
Experimental: Aerosol performances were determined using the Next Generation Impactor (NGI) with a USP induction port and pre-separator containing 15 mL 60:40% v/v MeOH:H2O. […] The aerodynamic particle size distribution was based on 5 actuations from the NEXThaler®, each sampled into 4 liters of air (equivalent to an inhalation time of 4 s). The device was weighed before and after each actuation to determine the shot weight (mg). A minimum of 1 minute was allowed between consecutive actuations to allow static charge to dissipate.
Samples were collected from the NGI using a fixed volume technique. MeOH:H2O (60:40% v/v) was dispensed into the induction port (including mouthpiece); pre-separator; and each stage using an electronic metering dispenser. The induction port (30 mL) and pre-separator (50 mL) were sealed using silicone bungs and shaken by hand for 2 minutes before the samples were collected. The NGI stages (10 mL stages 1-2; 15 mL stage 3-MOC) were rocked using a NGI rocker for 3 minutes. All samples were filtered using a 0.2 μm syringe filter before analysis by UPLC-PDA.

[3] = Uniformity of distribution of the active ingredients in the powder formulation (UPLC-PDA); conditions: powder formulation of Example 3
Experimental: About 10 mg of the formulation was weighed directly into a 25 mL volumetric flask. It was sampled 10 times. The flask was made up to volume with 60:40% v/v MeOH:H2O and sonicated for 2 minutes. The samples were analyzed for each active ingredient using UPLC-PDA assay.

With COc1ccc(CC(C)NCC(O)c2ccc(O)c(NC=O)c2)cc1 (stereo not shown) [FF, formoterol fumarate dihydrate] the Actual concentration [1] was 5.1 ± 0.0 % w/w, the “FPF (fine particle fraction)” value [2] was 70.2 ± 3.0% and the “FPF < 1 μm (extrafine FPF)” value [2] was 21.6 ± 1.0%. The “FPF < 2 μm (extrafine FPF)” value [2] was 39.7 ± 1.1%, the MMAD [2] was 1.9 ± 0.1 μm and the “% of Target” value [3] was 101.27%. It also gave a Content ([3]; sampled 10 times) of 6.08 ± 0.08 μg 10 mg^−1.
